Laboratory results published in PMC8795421.
These are yes or no findings as the source states them, for the method shown. Some entries that bind do so weakly or less than the wild type.

The chains behind the UniProt entries cited, without tags or fusion partners. Residues count along the entry.
UniProt P48960, residues 24-540: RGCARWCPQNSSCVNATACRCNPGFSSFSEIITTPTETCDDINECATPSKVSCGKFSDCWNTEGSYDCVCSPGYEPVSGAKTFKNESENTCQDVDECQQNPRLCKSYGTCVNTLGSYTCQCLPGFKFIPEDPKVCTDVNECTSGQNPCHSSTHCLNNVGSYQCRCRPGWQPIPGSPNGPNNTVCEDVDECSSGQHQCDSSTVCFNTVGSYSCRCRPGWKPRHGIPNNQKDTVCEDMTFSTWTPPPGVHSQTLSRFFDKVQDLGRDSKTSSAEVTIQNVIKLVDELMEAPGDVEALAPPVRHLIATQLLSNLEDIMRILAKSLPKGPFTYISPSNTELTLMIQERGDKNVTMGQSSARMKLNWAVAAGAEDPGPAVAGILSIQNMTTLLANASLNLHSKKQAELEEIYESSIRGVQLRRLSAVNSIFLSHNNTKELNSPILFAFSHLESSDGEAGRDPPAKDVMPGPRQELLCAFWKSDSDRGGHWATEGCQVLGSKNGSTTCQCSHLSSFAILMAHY
UniProt P08174, residues 35-353: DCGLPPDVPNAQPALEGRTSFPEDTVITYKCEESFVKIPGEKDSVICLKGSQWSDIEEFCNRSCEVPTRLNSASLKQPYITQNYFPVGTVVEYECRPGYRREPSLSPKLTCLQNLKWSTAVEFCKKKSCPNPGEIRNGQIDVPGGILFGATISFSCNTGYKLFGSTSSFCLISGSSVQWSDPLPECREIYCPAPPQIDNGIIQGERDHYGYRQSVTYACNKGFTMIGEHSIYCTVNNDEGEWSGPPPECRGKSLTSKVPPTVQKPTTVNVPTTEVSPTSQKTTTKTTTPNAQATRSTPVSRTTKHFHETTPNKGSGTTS

Molecular target: Biotinylated recombinant CD97, N-terminal extracellular domain (residues 24-540) with Fc domain and avidin tag (human) (UniProt P48960)
Experiment: BLI; Octet RED384; biotinylated recombinant CD97 immobilised on streptavidin biosensors; 6.25 nM to 100 nM human DAF-Fc in solution; PBS with 0.1% BSA kinetic buffer; global fit (1:1); both purified

**Q.** Which binding does the source give for “DAF-Fc (decay accelerating factor, DAF/CD55, fused to the human IgG1 Fc region) (from UniProt P08174 35-353) (Fc fusion)” here?
**A.** The binding was “binds”.
